Experimental data taken from paper PMC11558147.
Results are given in words; binding and its absence hold for the method and conditions named. In cells and extracts the contact can be indirect. Some results given as binding are weak or reduced against the parent protein; the word gives no strength.

Protein sequences, listed by entry. Tags and fused reporters are not part of them.
UniProt P26599: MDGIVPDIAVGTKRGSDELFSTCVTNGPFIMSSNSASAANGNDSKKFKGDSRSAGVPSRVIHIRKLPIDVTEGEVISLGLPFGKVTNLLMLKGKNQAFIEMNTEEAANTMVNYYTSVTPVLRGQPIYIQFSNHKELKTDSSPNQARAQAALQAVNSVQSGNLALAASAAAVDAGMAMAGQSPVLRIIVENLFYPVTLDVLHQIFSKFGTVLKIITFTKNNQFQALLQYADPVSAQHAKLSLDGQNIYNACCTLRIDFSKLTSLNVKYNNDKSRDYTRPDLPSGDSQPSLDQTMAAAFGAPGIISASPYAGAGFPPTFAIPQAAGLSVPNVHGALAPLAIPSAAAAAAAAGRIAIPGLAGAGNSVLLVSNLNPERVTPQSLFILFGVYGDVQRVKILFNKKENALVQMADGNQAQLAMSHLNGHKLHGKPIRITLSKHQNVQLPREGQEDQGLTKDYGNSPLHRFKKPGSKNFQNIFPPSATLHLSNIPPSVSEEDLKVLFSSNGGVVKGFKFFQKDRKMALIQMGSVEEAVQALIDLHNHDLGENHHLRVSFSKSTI
UniProt Q9UKM9: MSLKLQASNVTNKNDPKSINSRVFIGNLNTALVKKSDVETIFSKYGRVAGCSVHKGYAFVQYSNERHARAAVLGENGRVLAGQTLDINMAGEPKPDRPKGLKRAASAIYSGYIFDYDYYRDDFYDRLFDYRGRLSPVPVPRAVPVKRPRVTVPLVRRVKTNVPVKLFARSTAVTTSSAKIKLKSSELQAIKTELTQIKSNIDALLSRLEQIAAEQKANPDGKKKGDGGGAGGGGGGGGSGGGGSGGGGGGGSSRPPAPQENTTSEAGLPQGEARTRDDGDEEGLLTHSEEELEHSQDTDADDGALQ

How the values were obtained:
[1] = molecular target: polypyrimidine tract binding protein 1 (PTBP1) (human (endogenous in DU145 and PC-3)) (UniProt P26599); assay: co-IP; lysates of prostate cancer cells, anti-PTBP1 or anti-RALY antibody, magnetic protein A/G beads, western blot
[2] = molecular target: heterogeneous nuclear ribonucleoproteins (hnRNP) associated with lethal yellow protein homolog (RALY) (human (endogenous in DU145 and PC-3)) (UniProt Q9UKM9); assay: as above

Row | Substance | binding [1] | binding [2]
1 | heterogeneous nuclear ribonucleoproteins (hnRNP) associated with lethal yellow protein homolog (RALY) (from UniProt Q9UKM9 1-306) | binds | 
2 | polypyrimidine tract binding protein 1 (PTBP1) (from UniProt P26599 1-557) |  | binds
